The list shows a part of the results, in another mix than the full data. At the low end of the ranking, values are background and their order means little.
Biological target: ETV7 (UniProt Q9Y603)
Test: DAPPL (digital affinity profiling via proximity ligation, sequencing)
Conditions: 10 mM Tris-HCl pH 7.5, 50 mM NaCl, 1 mM DTT, 4% glycerol, room temperature, 30 min; GST-TFs on glutathione beads, 16-mer random dsDNA library, 0.1% …; high values mean tight binding; double strand, one strand shown; scale: fold enrichment (6-mer frequency, TF over GST control)

The chains behind the UniProt entries cited, without tags or fusion partners. Where a name states a change or a piece, a line headed by the entry shows the natural chain unless it says otherwise.
UniProt Q9Y603: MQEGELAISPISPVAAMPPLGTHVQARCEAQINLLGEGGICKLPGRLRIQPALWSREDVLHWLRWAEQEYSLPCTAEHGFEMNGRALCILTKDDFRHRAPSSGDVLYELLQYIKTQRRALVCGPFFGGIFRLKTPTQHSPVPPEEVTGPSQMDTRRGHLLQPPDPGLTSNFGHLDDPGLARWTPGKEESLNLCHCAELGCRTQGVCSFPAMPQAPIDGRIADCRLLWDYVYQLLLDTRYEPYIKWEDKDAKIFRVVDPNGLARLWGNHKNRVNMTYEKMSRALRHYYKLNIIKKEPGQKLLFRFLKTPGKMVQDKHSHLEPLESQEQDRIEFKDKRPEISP

Row | Sequence | binding signal
1 | AATAGT | 1.18
2 | TTAATA | 1.23
3 | TAAACC | 1.22
4 | AAATAG | 1.23
5 | TGCCGG | 0.909
6 | CAATTA | 1.15
7 | TTCATG | 1.35
8 | TATGTG | 1.04
9 | TCTACA | 0.953
10 | AGGAAC | 0.988
11 | ACGGCT | 1.03
12 | ATTAGG | 1.15
13 | GTTTGA | 1.24
14 | ACCCGG | 1.55
15 | TTTAGT | 0.992
16 | ACGGCA | 0.995
17 | CTATGG | 1.39
18 | TACAGA | 1.18
19 | CAACCG | 0.986
20 | AAAAAC | 1.29

Row | Sequence | binding signal
21 | CTTTAT | 1.31
22 | CAGATT | 0.993
23 | AACTAC | 1.39
24 | AAAGTT | 1.15
25 | ACTGAT | 1.13
26 | AGTACA | 1.21
27 | TTGCTG | 1.37
28 | TTATGC | 1.44
29 | ATCAAC | 1.02
30 | TGAGCT | 0.962
31 | ATAATG | 1.01
32 | GTCCGC | 0.992
33 | CATGCC | 0.967
34 | TGCCCT | 1.08
35 | CCCTCT | 1.27
36 | ACACCT | 1.11
37 | GTTAAA | 0.975
38 | TGATAT | 1.03
39 | GGTCTA | 0.946

Part of the list above, as comma-separated lines:
Row,Sequence,binding signal
23,AACTAC,1.39
27,TTGCTG,1.37

Reference: article PMC7862700
